Test results: PubChem BioAssay (EPA / NIEHS)
The inconclusive results got no clear call from the source; some entries with a clear call stand among them for comparison. A potency beside an inconclusive call is a rough fit, not a confirmed value. The source made the active and inactive calls. The calls were made as follows: active = hit-call score of the fitted dose curve at least 0.9, where 1 is the maximum; inconclusive = response in the unintended direction; inactive = score below 0.9.

By UniProt entry, the sequences of proteins in these tests, tags left out. Where a name states a change or a piece, a line headed by the entry shows the natural chain unless it says otherwise.
UniProt P04799: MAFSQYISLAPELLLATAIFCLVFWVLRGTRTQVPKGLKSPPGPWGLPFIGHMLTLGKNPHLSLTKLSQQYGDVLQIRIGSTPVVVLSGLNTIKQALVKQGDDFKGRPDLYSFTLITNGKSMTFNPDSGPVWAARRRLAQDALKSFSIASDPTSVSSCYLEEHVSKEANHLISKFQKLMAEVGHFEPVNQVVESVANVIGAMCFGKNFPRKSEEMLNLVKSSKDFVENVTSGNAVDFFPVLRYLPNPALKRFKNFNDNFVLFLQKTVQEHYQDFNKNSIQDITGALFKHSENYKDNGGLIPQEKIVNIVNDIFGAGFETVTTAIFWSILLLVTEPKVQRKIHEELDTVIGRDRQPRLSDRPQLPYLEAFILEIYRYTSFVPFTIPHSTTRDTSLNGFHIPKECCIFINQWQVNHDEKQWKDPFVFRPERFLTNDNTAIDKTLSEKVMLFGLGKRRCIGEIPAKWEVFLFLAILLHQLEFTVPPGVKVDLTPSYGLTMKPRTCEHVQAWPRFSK

target: rat CYP1A2, Cyp1a2 (gene 24297) (UniProt P04799); test: NVS_ADME_rCYP1A2: NovaScreen (NVS) CYP450-related Enzyme Activity (ADME) Assay for rat CYP1A2 (AID 2283115)
Description: NVS_ADME_rCYP1A2 is a biochemical, single-readout assay that uses extracted gene-proteins in a cell-free assay. Measurements were taken 1 hour after chemical dosing in a 96-well plate.NVS_ADME_rCYP1A2 is one of one assay component(s) measured or calculated from the NVS_ADME_rCYP1A2 assay. It is designed to make measurements of enzyme activity, a form of enzyme reporter, as detected with fluorescence intensity signals by Fluorescence technology.Data from the assay component NVS_ADME_rCYP1A2 was analyzed into 1 assay endpoint. This assay endpoint, NVS_ADME_rCYP1A2, was analyzed in the positive analysis fitting direction relative to Acetonitrile as the negative control and baseline of activity. Using a type of enzyme reporter, loss-of-signal activity can be used to understand changes in the enzymatic activity as they relate to the gene Cyp1a2. Furthermore, this assay endpoint can be referred to as a primary readout, because this assay has produced multiple assay endpoints where this one serves a enzymatic activity function. To generalize the intended target to other relatable targets, this assay endpoint is annotated to the cyp intended target family, where the subfamily is xenobiotic metabolism.
Binding assays used specific radioligands (tritiated, iodinated) with non-radioactive competitive displacement ligands in agonist or antagonist protocols (as indicated) and various reference compounds and inhibitors to titrate specific binding to receptors and transporters. Most enzyme assays (CYPs, kinases, phosphatases, proteases, HDACs) used recombinant protein and specific substrates (fluorescence mostly, some colorimetric and radioactive) and inhibitors, followed by a biochemical separation of substrate and product. All assays for the biochemical HTS were initially run in duplicate at a single concentration (10 uM for CYP450 assays and 25 uM for all others). […] Each assay was run with positive and negative controls, and concurrent controls on every plate. The follow-up (secondary) screen tested active chemical-pairs in concentration series, as well as a few additional assays not tested in the primary screen, some selected negative inactives, and several cases re-run in the concentration series for confirmatory purposes.

Compound | AC50 | outcome
CCCCCCCCCCCCCCCC[N+](C)(C)Cc1ccccc1 | inconclusive: 0.992 µM | 
c1cc[nH]c1 |  | inactive
Nc1ccc([N+](=O)[O-])cc1O | inconclusive: 9.26 µM | 
COc1ccc2nc(N)sc2c1 | inconclusive: 0.992 µM | 
Nc1ccc(F)c([N+](=O)[O-])c1 | inconclusive: 5 µM | 
CO[Si](CCC1CCC2OC2C1)(OC)OC (stereo not drawn) |  | inactive
Oc1ccc(/C=C/c2cc(O)cc(O)c2)cc1 | inconclusive: 5 µM | 
COc1ccc(C(=O)c2ccccc2)c(O)c1 | inconclusive: 5 µM | 
N#CSCSc1nc2ccccc2s1 | inconclusive: 5 µM | 
Cc1ccc(O)c(-n2nc3ccccc3n2)c1 | inconclusive: 5 µM | 
c1ccc2sc(SN(C3CCCCC3)C3CCCCC3)nc2c1 |  | inactive
CCCCCCCCCCCCCCCC[N+](C)(C)CC | inconclusive: 5 µM | 
c1ccc2c(c1)[nH]c1ccccc12 | inconclusive: 5 µM | 
O=C(c1ccccc1)c1ccc(O)cc1O | inconclusive: 5 µM | 
CCn1c2ccccc2c2cc(N)ccc21 | inconclusive: 2.2 µM | 
CCCCCCCCCCCC(C)=O | inconclusive: 0.0049 µM | 
O=C1c2c(O)ccc(Nc3ccc(CCO)cc3)c2C(=O)c2c([N+](=O)[O-])ccc(O)c21 | inconclusive: 2.09 µM | 
CCCCCCCCCCCCCC[N+](C)(C)C | inconclusive: 7.75 µM | 

Individual results from the entries so far:
For outcome, CO[Si](CCC1CCC2OC2C1)(OC)OC (stereo not drawn) shows inactive
For outcome, c1cc[nH]c1 shows inactive
